No constants are given. Whether binding was seen depends on the method and setting. Binding seen in cells or lysates may run through a third protein. Some entries that bind do so weakly or less than the wild type.

By UniProt entry, the sequences of proteins in these tests, tags left out. Where a name states a change or a piece, a line headed by the entry shows the natural chain unless it says otherwise.
UniProt Q5S007: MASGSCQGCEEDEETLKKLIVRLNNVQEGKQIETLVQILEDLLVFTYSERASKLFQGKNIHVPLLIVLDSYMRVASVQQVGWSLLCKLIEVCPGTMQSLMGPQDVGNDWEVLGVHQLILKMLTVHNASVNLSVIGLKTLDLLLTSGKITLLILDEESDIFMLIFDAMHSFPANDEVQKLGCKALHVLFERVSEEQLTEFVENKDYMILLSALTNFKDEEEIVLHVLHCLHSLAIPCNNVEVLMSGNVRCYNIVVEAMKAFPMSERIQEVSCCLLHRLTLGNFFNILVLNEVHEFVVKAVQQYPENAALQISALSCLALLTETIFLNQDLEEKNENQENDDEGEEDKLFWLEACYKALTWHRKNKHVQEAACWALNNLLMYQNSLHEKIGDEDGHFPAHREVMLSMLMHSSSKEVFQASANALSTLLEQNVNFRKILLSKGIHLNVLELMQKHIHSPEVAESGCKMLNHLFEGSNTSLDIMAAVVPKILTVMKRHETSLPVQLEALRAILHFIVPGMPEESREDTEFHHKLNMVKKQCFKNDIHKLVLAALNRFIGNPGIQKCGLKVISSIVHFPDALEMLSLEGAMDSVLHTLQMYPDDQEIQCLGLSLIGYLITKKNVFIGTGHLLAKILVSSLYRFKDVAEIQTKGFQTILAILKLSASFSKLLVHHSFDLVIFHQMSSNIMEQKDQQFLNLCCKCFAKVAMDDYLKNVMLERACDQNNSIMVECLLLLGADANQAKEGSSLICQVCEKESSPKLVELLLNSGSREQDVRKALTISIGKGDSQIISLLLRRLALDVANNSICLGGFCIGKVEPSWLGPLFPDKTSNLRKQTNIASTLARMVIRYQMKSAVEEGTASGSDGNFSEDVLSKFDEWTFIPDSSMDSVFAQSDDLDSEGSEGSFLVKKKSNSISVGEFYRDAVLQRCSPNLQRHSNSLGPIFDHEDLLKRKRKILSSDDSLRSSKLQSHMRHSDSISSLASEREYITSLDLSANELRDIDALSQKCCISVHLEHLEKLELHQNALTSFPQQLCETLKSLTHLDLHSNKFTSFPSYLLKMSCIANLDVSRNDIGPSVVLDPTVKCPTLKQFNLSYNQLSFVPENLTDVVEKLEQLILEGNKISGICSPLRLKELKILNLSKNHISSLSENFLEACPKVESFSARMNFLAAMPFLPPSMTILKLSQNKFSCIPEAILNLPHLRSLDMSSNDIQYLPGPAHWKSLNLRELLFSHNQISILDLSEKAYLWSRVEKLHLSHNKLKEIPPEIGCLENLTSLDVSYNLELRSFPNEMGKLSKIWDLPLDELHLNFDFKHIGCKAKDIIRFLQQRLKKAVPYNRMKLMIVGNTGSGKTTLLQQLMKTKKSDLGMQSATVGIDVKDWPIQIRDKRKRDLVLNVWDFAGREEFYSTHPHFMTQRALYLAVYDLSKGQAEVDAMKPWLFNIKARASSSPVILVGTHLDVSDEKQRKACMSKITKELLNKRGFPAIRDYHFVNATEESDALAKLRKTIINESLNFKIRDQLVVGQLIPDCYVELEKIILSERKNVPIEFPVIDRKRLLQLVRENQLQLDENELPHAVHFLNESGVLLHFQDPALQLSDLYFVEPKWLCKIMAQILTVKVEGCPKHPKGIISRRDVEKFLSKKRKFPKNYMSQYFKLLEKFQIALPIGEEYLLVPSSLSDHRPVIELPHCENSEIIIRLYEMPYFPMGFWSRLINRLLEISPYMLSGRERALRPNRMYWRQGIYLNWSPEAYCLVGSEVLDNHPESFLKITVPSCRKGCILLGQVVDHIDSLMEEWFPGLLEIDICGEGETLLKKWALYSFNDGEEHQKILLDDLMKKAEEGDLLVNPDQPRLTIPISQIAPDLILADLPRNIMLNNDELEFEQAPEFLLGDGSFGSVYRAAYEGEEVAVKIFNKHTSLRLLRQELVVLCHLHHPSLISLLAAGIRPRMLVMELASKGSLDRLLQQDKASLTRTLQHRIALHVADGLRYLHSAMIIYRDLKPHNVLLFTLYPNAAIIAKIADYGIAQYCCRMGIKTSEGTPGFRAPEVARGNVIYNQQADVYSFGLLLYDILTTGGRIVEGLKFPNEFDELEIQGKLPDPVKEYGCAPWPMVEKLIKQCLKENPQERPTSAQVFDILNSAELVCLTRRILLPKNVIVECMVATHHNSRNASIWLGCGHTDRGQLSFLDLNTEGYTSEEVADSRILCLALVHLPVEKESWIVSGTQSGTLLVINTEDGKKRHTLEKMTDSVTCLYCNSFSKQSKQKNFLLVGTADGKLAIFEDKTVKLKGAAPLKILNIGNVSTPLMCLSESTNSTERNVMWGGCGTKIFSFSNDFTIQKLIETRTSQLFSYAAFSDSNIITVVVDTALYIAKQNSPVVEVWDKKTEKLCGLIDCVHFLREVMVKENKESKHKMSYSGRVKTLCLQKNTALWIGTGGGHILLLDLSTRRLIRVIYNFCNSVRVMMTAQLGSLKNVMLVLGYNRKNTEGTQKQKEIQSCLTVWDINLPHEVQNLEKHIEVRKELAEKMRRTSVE
UniProt P97445: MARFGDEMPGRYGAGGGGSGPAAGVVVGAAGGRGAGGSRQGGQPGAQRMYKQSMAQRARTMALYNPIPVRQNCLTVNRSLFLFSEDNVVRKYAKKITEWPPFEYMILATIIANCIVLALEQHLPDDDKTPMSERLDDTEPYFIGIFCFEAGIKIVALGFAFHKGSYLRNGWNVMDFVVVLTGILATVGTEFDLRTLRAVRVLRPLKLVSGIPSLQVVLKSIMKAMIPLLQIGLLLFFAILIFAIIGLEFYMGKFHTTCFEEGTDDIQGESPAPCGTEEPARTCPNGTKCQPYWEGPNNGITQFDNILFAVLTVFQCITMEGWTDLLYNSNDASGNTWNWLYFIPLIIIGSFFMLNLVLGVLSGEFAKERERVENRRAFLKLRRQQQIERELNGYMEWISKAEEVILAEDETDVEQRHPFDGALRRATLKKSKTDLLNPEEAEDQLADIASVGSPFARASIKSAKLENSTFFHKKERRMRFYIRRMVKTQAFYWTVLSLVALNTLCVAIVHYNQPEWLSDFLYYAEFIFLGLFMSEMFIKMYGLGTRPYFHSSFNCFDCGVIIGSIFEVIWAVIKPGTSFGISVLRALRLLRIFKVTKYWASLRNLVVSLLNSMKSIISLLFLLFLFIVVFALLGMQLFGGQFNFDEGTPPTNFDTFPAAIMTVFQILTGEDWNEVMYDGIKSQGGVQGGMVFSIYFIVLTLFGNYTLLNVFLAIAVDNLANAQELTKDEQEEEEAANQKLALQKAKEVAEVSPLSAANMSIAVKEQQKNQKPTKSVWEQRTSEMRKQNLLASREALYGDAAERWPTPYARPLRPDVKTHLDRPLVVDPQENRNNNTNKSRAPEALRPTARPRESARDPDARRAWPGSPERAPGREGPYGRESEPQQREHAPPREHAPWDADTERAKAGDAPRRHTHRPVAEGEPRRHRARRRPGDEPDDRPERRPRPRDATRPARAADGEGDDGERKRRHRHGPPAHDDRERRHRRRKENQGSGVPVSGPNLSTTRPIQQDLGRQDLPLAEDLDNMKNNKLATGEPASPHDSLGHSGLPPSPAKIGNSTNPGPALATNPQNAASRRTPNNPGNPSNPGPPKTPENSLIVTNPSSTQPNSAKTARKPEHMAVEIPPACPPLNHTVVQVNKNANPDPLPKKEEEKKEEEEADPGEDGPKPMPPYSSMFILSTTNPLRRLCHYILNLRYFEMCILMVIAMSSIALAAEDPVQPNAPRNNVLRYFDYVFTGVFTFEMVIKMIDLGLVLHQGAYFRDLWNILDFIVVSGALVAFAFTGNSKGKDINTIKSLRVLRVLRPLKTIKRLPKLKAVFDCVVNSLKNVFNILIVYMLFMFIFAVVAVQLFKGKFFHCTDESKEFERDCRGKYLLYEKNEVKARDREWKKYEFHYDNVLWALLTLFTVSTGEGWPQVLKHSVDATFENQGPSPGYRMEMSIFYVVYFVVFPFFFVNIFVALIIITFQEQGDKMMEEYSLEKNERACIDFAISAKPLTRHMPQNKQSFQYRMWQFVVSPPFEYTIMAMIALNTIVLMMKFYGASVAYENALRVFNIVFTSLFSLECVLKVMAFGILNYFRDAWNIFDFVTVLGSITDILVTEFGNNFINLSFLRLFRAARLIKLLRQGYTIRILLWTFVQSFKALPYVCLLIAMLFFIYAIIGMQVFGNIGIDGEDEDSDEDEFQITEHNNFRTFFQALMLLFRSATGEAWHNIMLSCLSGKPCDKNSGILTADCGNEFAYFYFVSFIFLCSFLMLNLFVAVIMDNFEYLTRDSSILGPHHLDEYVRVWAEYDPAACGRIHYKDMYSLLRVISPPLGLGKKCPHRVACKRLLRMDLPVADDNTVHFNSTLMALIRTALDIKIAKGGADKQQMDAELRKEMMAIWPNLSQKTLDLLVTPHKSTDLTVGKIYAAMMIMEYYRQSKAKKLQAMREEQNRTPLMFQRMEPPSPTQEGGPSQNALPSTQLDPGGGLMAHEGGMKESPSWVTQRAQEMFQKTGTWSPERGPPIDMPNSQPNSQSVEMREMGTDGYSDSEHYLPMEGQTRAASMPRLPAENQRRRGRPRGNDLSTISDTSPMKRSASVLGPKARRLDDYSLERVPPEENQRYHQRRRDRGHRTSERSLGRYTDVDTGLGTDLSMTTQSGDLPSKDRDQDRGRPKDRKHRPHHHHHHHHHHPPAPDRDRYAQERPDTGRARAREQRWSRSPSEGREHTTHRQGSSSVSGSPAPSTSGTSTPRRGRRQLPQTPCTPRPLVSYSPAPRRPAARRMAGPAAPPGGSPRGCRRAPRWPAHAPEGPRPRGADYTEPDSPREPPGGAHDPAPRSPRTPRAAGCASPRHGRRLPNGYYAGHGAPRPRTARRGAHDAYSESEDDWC
UniProt P54285: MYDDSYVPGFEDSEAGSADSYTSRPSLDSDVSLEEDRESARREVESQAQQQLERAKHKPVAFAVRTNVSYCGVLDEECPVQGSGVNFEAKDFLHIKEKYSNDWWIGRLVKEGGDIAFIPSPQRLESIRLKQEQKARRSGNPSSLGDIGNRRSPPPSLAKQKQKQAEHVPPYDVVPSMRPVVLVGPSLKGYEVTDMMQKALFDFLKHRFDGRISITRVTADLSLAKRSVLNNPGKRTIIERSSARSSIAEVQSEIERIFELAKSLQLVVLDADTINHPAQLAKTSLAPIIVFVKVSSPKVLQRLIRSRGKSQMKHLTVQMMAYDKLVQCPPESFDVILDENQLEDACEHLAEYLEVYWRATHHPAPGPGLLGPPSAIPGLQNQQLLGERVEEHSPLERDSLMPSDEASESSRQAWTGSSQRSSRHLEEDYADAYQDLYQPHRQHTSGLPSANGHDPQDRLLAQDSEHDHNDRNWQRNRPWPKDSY

Experiment [1] has as its target G2019S LRRK2 from BAC hG2019S LRRK2 mice (human) (UniProt Q5S007). In words: co-IP; adult mouse forebrain (littermate wt or heterozygous BAC hG2019S) cross-linked with 0.8% formaldehyde for 2 h, lysed in 150 mM NaCl, 2 mM EDTA, 50 mM Tris-HCl, 1% NP-40, 0.25% sodium deoxycholate, pH 7.4; 1 mg protein with 3 ug rat anti-LRRK2 (clone 24D8) or rat IgG, protein G-Sepharose; western blot.

Experiment [2] deals with leucine rich repeat kinase 2 (LRRK2), endogenous, wild-type mouse forebrain (mouse (endogenous in forebrain)) (UniProt Q5S006). Described as above.

As for “CaV2.1 α1A subunit (from UniProt P97445 1-2368)”, the binding result in experiment [1] and in experiment [2] was “no binding” each time.

Regarding “CaV channel β3 subunit (from UniProt P54285 1-484)”, the binding entry in experiment [1] and in experiment [2] was “binds” in each case.

Values taken from article PMC4876133.
